In patent US10064942B2, “Copper-cysteamine and methods of use” (THE BOARD OF REGENTS, THE UNIVERSITY OF TEXAS SYSTEM, priority 2013, dated 2018):

Experiment: Singlet oxygen measurement by RNO-imidazole method under X-ray

## Cu3Cl(SR)2 wherein R is —CH2CH2NH2 [Cu-Cy]
X-ray 8 Gy
  singlet oxygen formation relative to PPIX: six-times greater than PPIX
X-ray doses 0 to 8 Gy, 1 mg sample in 3 mL RNO-ID solution, versus control
  singlet oxygen formation as measured by the loss in RNO absorption: almost linear relationship of increasing singlet oxygen formation
